From paper PMC12669963, “PGAM5 cleavage and oligomerization equilibrates mitochondrial dynamics under stress by regulating DRP1 function” (Journal of Cell Science, 2025) come the findings set out here.

The chains behind the UniProt entries cited, without tags or fusion partners. Where a name states a change or a piece, a line headed by the entry shows the natural chain unless it says otherwise.
UniProt Q96HS1: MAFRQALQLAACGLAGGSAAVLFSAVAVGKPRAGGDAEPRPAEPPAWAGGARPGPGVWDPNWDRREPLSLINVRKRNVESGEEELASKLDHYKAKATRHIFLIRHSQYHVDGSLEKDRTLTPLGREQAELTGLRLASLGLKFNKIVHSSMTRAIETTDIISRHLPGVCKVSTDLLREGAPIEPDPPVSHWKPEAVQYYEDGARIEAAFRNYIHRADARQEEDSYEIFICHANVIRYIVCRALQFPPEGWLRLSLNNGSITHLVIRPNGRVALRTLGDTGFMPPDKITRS
UniProt O00429: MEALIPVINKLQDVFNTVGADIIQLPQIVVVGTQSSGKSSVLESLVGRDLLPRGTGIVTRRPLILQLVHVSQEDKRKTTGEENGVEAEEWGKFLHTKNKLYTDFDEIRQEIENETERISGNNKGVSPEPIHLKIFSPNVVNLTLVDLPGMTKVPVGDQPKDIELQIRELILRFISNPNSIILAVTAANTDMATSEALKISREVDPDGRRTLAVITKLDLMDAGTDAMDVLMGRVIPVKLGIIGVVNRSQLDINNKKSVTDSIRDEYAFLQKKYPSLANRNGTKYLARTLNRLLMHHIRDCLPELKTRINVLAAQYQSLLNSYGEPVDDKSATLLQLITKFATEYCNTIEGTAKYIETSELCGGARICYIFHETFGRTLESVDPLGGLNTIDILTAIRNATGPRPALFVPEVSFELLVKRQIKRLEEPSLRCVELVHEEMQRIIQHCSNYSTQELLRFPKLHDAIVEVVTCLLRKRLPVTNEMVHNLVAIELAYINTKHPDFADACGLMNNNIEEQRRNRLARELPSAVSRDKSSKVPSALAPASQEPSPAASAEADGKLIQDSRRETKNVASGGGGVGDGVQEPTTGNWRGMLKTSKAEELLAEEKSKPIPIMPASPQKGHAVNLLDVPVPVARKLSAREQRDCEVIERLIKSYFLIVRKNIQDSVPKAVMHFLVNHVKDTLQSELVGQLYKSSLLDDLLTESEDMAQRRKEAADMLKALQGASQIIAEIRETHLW

The assay has as its target ΔMM WT PGAM5 GFP (UniProt Q96HS1). As to the kind of experiment: co-IP; GFP-trap beads on lysates of transfected HEK293 (methods: HEK293T) cells treated with DMSO or 20 μM CCCP for 2 h; lysis buffer 20 mM Tris-HCl pH 7.4, 200 mM NaCl, 5 mM EDTA, 10 mM MgCl2, 1% Triton X-100; western blot. (In general: Immunoblotting shows a protein as a band on a membrane.)

No constants are given. Whether binding was seen depends on the method and setting. In cells and extracts the contact can be indirect. A result given as binding can be weak or reduced; the word gives no strength.

Take “dynamin-related protein 1 (DRP1) (from UniProt O00429 1-736)”: the binding entry was “binds”.
